The experiment has as its target T1, recombinant full-length Apaf-1XL, O14727.
T1 chain: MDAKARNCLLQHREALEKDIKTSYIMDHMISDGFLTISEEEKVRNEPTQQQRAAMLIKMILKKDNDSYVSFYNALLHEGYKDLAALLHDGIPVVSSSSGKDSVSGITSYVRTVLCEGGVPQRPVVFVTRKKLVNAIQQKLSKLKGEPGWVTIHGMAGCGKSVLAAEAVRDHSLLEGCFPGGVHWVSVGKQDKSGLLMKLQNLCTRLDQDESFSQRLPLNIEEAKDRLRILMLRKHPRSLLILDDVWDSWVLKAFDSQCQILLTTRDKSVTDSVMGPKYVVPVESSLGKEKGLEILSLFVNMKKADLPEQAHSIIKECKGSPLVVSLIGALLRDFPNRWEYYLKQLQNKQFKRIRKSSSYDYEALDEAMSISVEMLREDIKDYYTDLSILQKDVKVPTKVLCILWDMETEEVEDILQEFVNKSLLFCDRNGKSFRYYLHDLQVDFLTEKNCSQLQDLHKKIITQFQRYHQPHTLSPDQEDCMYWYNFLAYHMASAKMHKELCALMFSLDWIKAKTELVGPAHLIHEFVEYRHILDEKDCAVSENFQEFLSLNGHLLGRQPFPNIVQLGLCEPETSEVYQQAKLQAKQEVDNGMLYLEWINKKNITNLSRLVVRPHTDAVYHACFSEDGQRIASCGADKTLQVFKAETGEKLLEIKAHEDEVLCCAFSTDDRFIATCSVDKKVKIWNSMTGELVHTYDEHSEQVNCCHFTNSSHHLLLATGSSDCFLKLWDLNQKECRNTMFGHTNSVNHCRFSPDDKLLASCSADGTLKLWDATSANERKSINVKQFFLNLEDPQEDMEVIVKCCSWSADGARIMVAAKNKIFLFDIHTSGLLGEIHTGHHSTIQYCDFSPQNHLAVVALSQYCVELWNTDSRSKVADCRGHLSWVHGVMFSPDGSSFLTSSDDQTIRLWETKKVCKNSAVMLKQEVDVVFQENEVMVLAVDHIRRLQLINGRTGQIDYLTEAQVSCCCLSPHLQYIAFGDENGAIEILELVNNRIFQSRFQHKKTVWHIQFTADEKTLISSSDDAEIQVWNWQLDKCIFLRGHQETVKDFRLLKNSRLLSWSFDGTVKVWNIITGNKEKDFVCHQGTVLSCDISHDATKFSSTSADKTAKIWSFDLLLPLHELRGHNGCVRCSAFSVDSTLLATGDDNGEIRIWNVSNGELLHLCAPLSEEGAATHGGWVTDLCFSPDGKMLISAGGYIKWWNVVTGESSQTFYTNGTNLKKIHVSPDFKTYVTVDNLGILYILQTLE
Description: SEC; Apaf-1 (300 nM) with C9 protein (200 nM) and Cc/dATP, 30 min 37 °C; Superose-6 gel filtration, pooled fractions precipitated and immunoblotted for Apaf-1 and C9; both purified. The note with it: remark: other sources report otherwise.

Results are given in words; binding and its absence hold for the method and conditions named. Some binding calls cover weakened binding; strength is not graded here.

B1: recombinant full-length Apaf-1XL, O14727-1 1-1248 (protein)
chain: T1 chain
For B1, the binding result is on record as “binds”.

Values taken from publication PMC5123071.
